Source: article doi:10.1101/2020.07.08.194100

Target: T1, GST fusion protein of the α1-syntrophin PDZ domain (GST-α1-PDZ) (UniProt Q61234)
T1 sequence: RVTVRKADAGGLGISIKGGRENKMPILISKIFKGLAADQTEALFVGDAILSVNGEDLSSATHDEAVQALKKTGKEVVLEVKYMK
Test: pull-down

HA-tagged wild-type diacylglycerol kinase ζ (HA-DGKζ) (enzyme)
binding: binds

These are yes or no findings as the source states them, for the method shown. Binding seen in cells or lysates may run through a third protein. A result given as binding can be weak or reduced; the word gives no strength. Sequences can lack the tags named with a protein.
